# Where a sequence shows no end group, the ends are not given.
# Experiment: peptide made by a vendor
# Conditions: whole synthesis, HPLC peak area %
row,Sequence,purity (crude or final not stated) [%]
1,KFLNRFWHWLQLKPGQPMY,96.0871
2,KFWKRFWHWLQLKPGQPMY,99.3
3,RKLQKFWHWLQLKPGQPMY,98.4
4,RRLKDFWHWLQLKPGQPMY,99.1
